Measurements published in publication doi:10.1101/2021.12.02.470928.
Results are given in words; binding and its absence hold for the method and conditions named.

What was measured:
Test in all cases: BLI
MBII peptide (Biotin-…) = target: T1, MBII peptide (Biotin-…)
T1 sequence (peptide, biotin on the N-terminus): IIIQDCMWSGFSAAAK

[1] = target: T2, MBIIIb peptide (Biotin-…)
T2 sequence (peptide, biotin on the N-terminus): EEEIDVVSVEKR

[2] = target: T3, MBIIIa peptide (Biotin-…)
T3 sequence (peptide, biotin on the N-terminus): CIDPSVVFPYPL

MBI peptide (Biotin-…) = target: T4, MBI peptide (Biotin-…)
T4 sequence (peptide, biotin on the N-terminus): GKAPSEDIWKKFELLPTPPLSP

MBIV peptide (Biotin-…) = target: T5, MBIV peptide (Biotin-…)
T5 sequence (peptide, biotin on the N-terminus): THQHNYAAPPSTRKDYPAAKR

Measured: binding

B1: PNUTS(1-148), PNUTS amino-terminal domain (PAD) (domain or fragment, UniProt Q96QC0 1-148)
chain: MGSGPIDPKELLKGLDSFLNRDGEVKSVDGISKIFSLMKEARKMVSRCTYLNILLQTRSPEILVKFIDVGGYKLLNNWLTYSKTTNNIPLLQQILLTLQHLPLTVDHLKQNNTAKLVKQLSKSSEDEELRKLASVLVSDWMAVIRSQS
no binding: MBII peptide (Biotin-…) | [1] | [2] | MBI peptide (Biotin-…) | MBIV peptide (Biotin-…)
